Experimental data published in PMC3544819.
For at least one entry, the source does not settle the construct or the ends of the probe. At least one verdict rests on a figure or table, not on a statement of the authors.

Sequences of proteins named here, by UniProt entry; tags and fusion partners are left off. Residues count along the entry.
UniProt P63015, 4-269: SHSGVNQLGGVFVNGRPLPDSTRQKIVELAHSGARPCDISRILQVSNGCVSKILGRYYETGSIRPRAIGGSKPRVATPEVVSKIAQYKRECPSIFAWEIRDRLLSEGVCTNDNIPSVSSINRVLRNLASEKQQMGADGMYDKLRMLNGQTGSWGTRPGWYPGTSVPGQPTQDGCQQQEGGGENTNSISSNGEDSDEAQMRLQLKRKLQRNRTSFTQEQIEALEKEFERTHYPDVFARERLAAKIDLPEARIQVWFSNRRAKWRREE

Target: Pax6 PD/HD (UniProt P63015)
Test: EMSA
Settings: three Snca probes stated bound, sites 1, 3 and 4 named in text; recombinant protein

| Sequence | binding result |
| --- | --- |
| TCACCTATGCTGTTGCATAAATCACTAGTTTAT (double strand) [Snca site 4] | binds |
| CTAGTGATTTATGCAACAGCATAGG (double strand) [Snca site 1] | binds |
| GTTGGTTTTCTGCCTCTCAGAACTTTACCA (double strand) [Snca site 3] | binds |
